In this test the target is TIR-1::3xFLAG (C. elegans TIR-1/SARM1 tagged from its endogenous locus with a 3xFLAG sequence) (C. elegans) (UniProt Q86DA5). The experiment in a line: native gel or EMSA.

Results are given in words; binding and its absence hold for the method and conditions named. Some results given as binding are weak or reduced against the parent protein; the word gives no strength. Sequences can lack the tags named with a protein.

B1: TIR-1::3xFLAG (C. elegans TIR-1/SARM1 tagged from its endogenous locus with a 3xFLAG sequence) (protein, UniProt Q86DA5 1-981)
chain: MLPNRKPPRPSPSFQSLNNNNQRFPLRRSLKIAQAHSLPTVPSEDAKDDDLITPELSTDFDFREIQHRYLMALQNEQDGETTSTDDAFFELDDDDDLSSPSVPGSPVDPPSISVPLPPKSAPPCPTQPAPLTNGDLYPTILSNGTPIPNGRITPALSTVSVSLIHEARLQQSLSTPCNGSEEEMHNGQVRKESEYRRFKSEGSTAGASLPAAEKTHMDELSPVDQRSTSGTARFLIQQDSVVNPSTKMSNTEQVAMMHTLKTKLSKYQAMMDKAFEEIAKVEDANIIEGCTIVRKLMRKVWNTPKVSADLANALCDYLRDRDYFDKLIKMFISPNTAACDQVRMECGKVLEECTSSANLEYIVNKSYTKKIMIVAMKLNKTPDQQRLSLSLIGNLFKHSNAVSLSLIETDVIDHIILTFKRAPECPDILRHAALALANILLYTCFEGKKKIIQKKIPEWLFFLASQADDVTRYYACIAVCTIVSVKEFEPLVRKSDTMKLVEPFLQVHDPATFARDYHKYAQGNTKEWLERLLPMLQPSRRREARSVAAFHFTLEATIKKEQNKLDVFQEIGAIQALKEVASSPDEVAAKFASEALTVIGEEVPYKLAQQVPGWTCADVQYWVKKIGFEEYVEKFAKQMVDGDLLLQLTENDLKHDVGMISGLHRKRFLRELQTLKVAADYSSVDESNLDNFLMGLSPELSVYTYQMLTNGVNRSLLSSLTDEMMQNACGITNPIHRLKLTQAFETAKHPDDVEVAMLSKQIDVFISYRRSTGNQLASLIKVLLQLRGYRVFIDVDKLYAGKFDSSLLKNIQAAKHFILVLTPNSLDRLLNDDNCEDWVHKELKCAFEHQKNIIPIFDTAFEFPTKEDQIPNDIRMITKYNGVKWVHDYQDACMAKVVRFITGELNRTTPTTKEMPSISRKTTQQRWQTTNTVSRTGPSRSIGGPRMEPPTPTFTPTGSQERATSTRRKIQPSASTTSDRN
B1: the binding result is on record as “binds”.

The record behind these values is publication doi:10.1101/2024.02.16.580734.
